In PubChem BioAssay AID328 (DTP/NCI, 2004):
The list is a part of this screen's results and no random one: it is rich in T/C values a quarter to a half above the control, in often repeated tests (any T/C) and in doses without a T/C. Other doses and runs of a compound stand elsewhere. T/C: endpoint of the treated group in % of that of the vehicle group. Some entries give survivors of the animals treated and no T/C: the source holds a T/C of zero for them, seemingly a mark for toxic or unscored doses. Some survivor counts are full or nearly so, which does not show that the dose was tolerated: the source hardly ever lists a survival T/C far under the control, and the zero likely stands for such cases as well. Survivors were counted at the toxicity check, usually on the fifth day, unless a day is given; later deaths do not show. Schedules are NCI's codes, taken here to give the interval after Q, in days (D) or hours (H), and the number of doses after X. Some structures stand for samples that the source files as different forms (salt, stereo form or complex); doses refer to the form tested. For survival time, this PubChem deposit counts one and a half times the control or more as active, and values a quarter to a half above the control carry no call in these data; other NCI protocols may use other cut-offs. Some T/C values are followed by the survivors on the day toxicity was checked, most often the fifth; where none is given, no animal had died by that day. Some doses were run more than once; their values stand side by side, smallest first.

System: BDF1 mice, P388 leukemia ip, median survival T/C
Experiment: NCI In Vivo Anticancer Drug Screen. Data for tumor model P388 Leukemia (intraperitoneal) in B6D2F1 (BDF1) mice
Details: T/C endpoint: median survival time, higher T/C = longer survival
Summary of the method: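 Antitumour effect was judged in vivo: survival in drug-treated mice, normalised to that of vehicle-dosed controls, gives the reported T/C.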

[1] = dose: 400.0 mg/kg/injection, schedule: Q01DX009 (ip), vehicle: saline
[2] = dose: 400.0 mg/kg/injection, schedule: Q04DX003 (ip), vehicle: saline
[3] = dose: 200.0 mg/kg/injection, schedule: Q01DX009 (ip), vehicle: saline with Tween-80
[4] = dose: 50.0 mg/kg/injection, schedule: Q01DX009 (ip), vehicle: saline with Tween-80
[5] = dose: 100.0 mg/kg/injection, schedule: Q01DX009 (ip), vehicle: saline with Tween-80
[6] = dose: 400.0 mg/kg/injection, schedule: Q04DX003 (ip), vehicle: saline with Tween-80
[7] = dose: 200.0 mg/kg/injection, schedule: Q01DX009 (ip), vehicle: saline
[8] = dose: 200.0 mg/kg/injection, schedule: Q04DX003 (ip), vehicle: saline with Tween-80

CCOC(=O)c1c(N)ssc1=S
survivor count [1]: 3 of 6 | survivor count [2]: 4 of 6 | survivor count (dose: 600.0 mg/kg/injection, schedule: Q01DX009 (ip), vehicle: saline): 0 of 6

Nc1ccccc1-n1nc2ccc3ccccc3c2n1
T/C [3]: 130 % of control

CCN(CC)CCC1(C#N)Cc2ccccc2N(CC)c2ccccc21 (stereo not drawn)
survivor count (dose: 400.0 mg/kg/injection, schedule: Q01DX009 (ip), vehicle: saline with Tween-80): 1 of 6

CC1(C)COCN1COCCCOCN1COCC1(C)C
T/C [4]: 148 % of control | T/C [5]: 139 % of control | survivor count [3]: 2 of 6

CC(C)NCC(O)COc1ccc(OCc2ccccc2)c(OCc2ccccc2)c1 (stereo not drawn)
survivor count [5]: 5 of 6

CC(C(O)c1cccs1)C(O)(C(F)(F)F)C(F)(F)F (stereo not drawn)
survivor count [6]: 6 of 6

CCO/C=C1\SC(=S)N(c2ccccc2OC)C1=O
T/C (dose: 132.0 mg/kg/injection, schedule: Q01DX009 (ip), vehicle: saline with Tween-80): 127 % of control | T/C [3]: 136 % of control | T/C (dose: 300.0 mg/kg/injection, schedule: Q01DX009 (ip), vehicle: saline with Tween-80): 136 % of control | survivor count (dose: 400.0 mg/kg/injection, schedule: Q01DX009 (ip), vehicle: Klucel (hydroxypropylcellulose) (HPC)): 5 of 6

NC(=S)n1cccn1
survivor count (dose: 100.0 mg/kg/injection, schedule: Q01DX010 (ip), vehicle: water): 6 of 6

Clc1ncnc2nc[nH]c12
survivor count (dose: 30.0 mg/kg/injection, schedule: Q01DX010 (ip), vehicle: saline): 6 of 6 | survivor count (dose: 60.0 mg/kg/injection, schedule: Q01DX010 (ip), vehicle: saline): 6 of 6

NOCc1csc(N)n1
survivor count (dose: 150.0 mg/kg/injection, schedule: Q04DX003 (ip), vehicle: saline): 6 of 6

N=C(N)c1ccc(SCCCCCSc2ccc(C(=N)N)cc2)cc1
survivor count [4]: 0 of 6 | survivor count [5]: 0 of 6 | survivor count [3]: 0 of 6

CCN(CC)CCNc1ccc(C)c2sc3ccccc3c(=O)c12 (tested in a mixture with another compound)
T/C (dose: 12.5 mg/kg/injection, schedule: Q01DX009 (ip), vehicle: saline): 130 % of control | T/C (dose: 25.0 mg/kg/injection, schedule: Q01DX009 (ip), vehicle: saline): 125 % of control | T/C (dose: 33.0 mg/kg/injection, schedule: Q01DX009 (ip), vehicle: saline): 131 % of control | T/C (dose: 50.0 mg/kg/injection, schedule: Q01DX009 (ip), vehicle: saline): 130 [5 of 6 alive] and 140 % of control | T/C (dose: 75.0 mg/kg/injection, schedule: Q01DX009 (ip), vehicle: saline): 145 % of control | survivor count (dose: 100.0 mg/kg/injection, schedule: Q01DX009 (ip), vehicle: saline): 5 of 6 | T/C (dose: 132.0 mg/kg/injection, schedule: Q04DX003 (ip), vehicle: saline): 127 % of control | survivor count [7]: 6 of 6 | T/C (dose: 200.0 mg/kg/injection, schedule: Q04DX003 (ip), vehicle: saline): 127 % of control | survivor count [1]: 1 of 6 | survivor count [2]: 4 of 6

COC(=O)c1cc(Cl)ccc1OCC(=O)Nc1ccc([N+](=O)[O-])cc1
survivor count (dose: 200.0 mg/kg/injection, schedule: Q04DX003 (ip), vehicle: Klucel (hydroxypropylcellulose) (HPC)): 6 of 6

Cc1nc2nc(N)[nH]c(=O)c2[nH]1
survivor count [8]: 3 of 6 | survivor count [6]: 2 of 6

O=C1C=CC(=Nc2ccc3c(c2)C(Br)c2ccccc2-3)O1 (stereo not drawn)
survivor count (dose: 100.0 mg/kg/injection, schedule: Q04DX003 (ip), vehicle: saline with Tween-80): 0 of 6 | survivor count [8]: 2 of 6 | survivor count (dose: 215.0 mg/kg/injection, schedule: Q04DX003 (ip), vehicle: saline): 0 of 6 | survivor count [6]: 0 of 6

OCC12COCN1COC2
T/C [7]: 130 % of control

O=C(O)c1cc(S(=O)(=O)F)cc(S(=O)(=O)F)c1
T/C (dose: 50.0 mg/kg/injection, schedule: Q01DX009 (ip), vehicle: alcohol): 127 % of control | T/C (dose: 75.0 mg/kg/injection, schedule: Q01DX009 (ip), vehicle: alcohol): 125 % of control | survivor count (dose: 100.0 mg/kg/injection, schedule: Q01DX009 (ip), vehicle: alcohol): 1 of 6
